For 1 substance, binding results are on record in paper PMC5548801, “Characterization of C-terminal structure of MinC and its implication in evolution of bacterial cell division” (Scientific Reports, 2017).

Chains of the proteins cited; added tags and fusions are not shown. Lines headed by an entry give the natural chain unless they say otherwise; changes in a name come on top. Residues count along the entry.
UniProt P0AEZ3, residues 1-260: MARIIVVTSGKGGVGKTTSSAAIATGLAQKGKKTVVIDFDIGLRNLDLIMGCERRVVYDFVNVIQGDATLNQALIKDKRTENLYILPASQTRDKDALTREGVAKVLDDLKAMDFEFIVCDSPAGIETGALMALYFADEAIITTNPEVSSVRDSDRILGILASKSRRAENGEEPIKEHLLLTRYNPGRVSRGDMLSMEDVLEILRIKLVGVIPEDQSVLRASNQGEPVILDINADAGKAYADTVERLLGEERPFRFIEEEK

No constants are given. Whether binding was seen depends on the method and setting. In cells and extracts the contact can be indirect. Some binding calls cover weakened binding; strength is not graded here.

The target in the test is EcMinDΔC10 (E. coli) (UniProt P0AEZ3). The test can be described thus: pull-down; competition experiment on the MinDE complex, MinE looked for in the elution (Fig. S7); set-up not shown.

For EcMinE (from UniProt P0A734 1-88), the binding result is on record as “binds”.
